First the molecules themselves.
T1: Sorbin and SH3 domain-containing protein 2 (mouse (endogenous in mouse myocardial tissue)) (UniProt Q3UTJ2)
T1 sequence: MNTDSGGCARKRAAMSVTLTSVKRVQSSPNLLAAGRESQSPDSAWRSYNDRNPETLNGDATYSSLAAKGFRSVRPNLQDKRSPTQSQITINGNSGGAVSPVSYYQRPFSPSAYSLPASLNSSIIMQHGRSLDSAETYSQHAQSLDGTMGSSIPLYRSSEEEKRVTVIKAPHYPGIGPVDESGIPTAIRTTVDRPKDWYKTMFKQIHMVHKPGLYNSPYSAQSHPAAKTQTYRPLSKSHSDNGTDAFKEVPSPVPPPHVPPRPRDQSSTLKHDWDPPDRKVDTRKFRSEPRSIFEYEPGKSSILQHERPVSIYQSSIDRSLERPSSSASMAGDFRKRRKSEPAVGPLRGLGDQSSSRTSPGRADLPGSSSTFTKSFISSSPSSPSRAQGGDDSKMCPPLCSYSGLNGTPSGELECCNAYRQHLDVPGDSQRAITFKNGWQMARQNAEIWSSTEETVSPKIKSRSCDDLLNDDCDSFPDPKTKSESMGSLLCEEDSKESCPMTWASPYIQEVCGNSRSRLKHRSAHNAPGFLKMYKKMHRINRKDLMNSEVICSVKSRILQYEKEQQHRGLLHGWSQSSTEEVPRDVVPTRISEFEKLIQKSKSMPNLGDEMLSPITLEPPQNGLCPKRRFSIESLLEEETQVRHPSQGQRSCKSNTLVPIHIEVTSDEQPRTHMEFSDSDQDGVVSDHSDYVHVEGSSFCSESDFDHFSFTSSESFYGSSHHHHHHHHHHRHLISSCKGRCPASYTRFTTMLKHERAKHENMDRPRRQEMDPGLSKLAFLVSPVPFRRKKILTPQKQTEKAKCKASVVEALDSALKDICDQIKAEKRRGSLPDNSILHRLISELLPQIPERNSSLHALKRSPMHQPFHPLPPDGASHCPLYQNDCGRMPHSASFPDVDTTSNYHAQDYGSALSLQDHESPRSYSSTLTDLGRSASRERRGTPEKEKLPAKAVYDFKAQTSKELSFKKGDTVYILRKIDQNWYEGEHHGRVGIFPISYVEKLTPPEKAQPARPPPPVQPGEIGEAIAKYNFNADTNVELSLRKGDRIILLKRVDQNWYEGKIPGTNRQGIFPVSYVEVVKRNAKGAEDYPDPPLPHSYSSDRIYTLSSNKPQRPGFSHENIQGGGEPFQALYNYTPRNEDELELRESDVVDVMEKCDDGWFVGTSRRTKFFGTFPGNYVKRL

Chains of the proteins cited; added tags and fusions are not shown.
UniProt Q91Z83: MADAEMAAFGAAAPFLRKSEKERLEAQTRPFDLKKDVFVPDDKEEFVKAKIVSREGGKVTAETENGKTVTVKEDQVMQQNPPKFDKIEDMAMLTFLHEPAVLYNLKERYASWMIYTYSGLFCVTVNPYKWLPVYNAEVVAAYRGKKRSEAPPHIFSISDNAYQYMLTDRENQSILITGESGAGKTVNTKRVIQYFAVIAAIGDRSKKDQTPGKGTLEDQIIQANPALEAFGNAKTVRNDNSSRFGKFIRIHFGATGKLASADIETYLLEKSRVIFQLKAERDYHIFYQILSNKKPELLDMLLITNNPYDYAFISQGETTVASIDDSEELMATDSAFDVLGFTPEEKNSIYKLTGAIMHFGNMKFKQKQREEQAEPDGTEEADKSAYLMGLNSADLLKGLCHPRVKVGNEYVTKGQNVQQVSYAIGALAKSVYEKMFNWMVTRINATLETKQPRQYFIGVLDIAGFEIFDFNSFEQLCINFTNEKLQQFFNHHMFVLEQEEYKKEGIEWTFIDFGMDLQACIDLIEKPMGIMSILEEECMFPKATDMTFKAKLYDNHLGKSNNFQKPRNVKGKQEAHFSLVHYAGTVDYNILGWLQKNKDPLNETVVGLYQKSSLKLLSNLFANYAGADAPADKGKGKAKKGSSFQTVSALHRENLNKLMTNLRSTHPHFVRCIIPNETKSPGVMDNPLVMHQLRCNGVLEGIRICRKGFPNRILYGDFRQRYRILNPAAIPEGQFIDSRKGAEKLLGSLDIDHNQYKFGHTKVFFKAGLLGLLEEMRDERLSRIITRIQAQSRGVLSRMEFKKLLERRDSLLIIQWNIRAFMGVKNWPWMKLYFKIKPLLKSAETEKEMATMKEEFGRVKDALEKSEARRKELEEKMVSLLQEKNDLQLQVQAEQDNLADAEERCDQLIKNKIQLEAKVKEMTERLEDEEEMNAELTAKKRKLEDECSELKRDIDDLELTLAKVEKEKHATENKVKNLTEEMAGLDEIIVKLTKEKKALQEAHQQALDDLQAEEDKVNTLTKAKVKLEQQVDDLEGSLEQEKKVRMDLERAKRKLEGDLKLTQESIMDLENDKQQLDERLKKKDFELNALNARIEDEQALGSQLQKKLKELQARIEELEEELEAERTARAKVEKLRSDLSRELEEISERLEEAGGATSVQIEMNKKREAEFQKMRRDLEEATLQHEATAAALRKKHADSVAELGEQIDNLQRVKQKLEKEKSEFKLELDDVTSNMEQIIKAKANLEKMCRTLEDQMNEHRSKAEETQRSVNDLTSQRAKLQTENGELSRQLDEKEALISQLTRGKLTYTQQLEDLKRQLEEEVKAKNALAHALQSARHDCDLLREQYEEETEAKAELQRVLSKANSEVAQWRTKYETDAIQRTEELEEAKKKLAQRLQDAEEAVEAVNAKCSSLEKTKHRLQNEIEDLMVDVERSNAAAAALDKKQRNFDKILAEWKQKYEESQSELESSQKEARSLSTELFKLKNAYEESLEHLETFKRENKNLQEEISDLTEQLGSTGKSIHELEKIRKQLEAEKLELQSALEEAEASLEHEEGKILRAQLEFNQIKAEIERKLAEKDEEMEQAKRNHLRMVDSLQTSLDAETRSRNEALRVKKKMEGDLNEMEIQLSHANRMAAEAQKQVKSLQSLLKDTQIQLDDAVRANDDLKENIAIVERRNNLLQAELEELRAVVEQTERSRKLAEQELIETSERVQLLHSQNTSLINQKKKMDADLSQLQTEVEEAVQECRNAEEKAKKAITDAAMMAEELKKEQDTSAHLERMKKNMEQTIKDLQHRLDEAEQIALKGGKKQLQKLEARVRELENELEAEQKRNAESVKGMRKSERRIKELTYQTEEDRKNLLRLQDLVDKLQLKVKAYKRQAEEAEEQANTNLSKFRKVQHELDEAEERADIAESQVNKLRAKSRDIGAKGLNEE
UniProt Q9JI91: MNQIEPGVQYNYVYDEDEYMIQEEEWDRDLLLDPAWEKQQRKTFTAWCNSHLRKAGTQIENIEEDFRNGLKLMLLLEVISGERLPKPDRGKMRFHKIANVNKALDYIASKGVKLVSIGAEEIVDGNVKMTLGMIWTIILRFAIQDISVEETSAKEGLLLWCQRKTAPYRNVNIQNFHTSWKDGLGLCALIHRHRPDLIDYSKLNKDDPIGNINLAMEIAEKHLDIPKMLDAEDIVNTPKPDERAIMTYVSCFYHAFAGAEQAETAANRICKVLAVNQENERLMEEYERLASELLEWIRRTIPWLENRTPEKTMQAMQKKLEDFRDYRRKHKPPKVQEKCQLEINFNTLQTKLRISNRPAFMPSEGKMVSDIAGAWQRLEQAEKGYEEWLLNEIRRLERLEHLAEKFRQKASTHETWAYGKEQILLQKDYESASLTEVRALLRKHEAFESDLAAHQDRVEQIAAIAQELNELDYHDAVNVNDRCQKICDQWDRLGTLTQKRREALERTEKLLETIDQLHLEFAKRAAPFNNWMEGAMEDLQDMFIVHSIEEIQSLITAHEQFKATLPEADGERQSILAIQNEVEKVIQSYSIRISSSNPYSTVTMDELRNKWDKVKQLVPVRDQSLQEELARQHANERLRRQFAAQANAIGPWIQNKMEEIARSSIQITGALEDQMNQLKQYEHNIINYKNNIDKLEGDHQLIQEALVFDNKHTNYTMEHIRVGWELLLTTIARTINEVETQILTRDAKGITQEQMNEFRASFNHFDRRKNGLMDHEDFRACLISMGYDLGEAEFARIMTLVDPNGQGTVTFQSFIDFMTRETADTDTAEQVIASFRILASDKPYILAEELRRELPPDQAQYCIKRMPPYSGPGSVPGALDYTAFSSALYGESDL

B1: YWHAQ (protein, UniProt P68254 1-245)
chain: MEKTELIQKAKLAEQAERYDDMATCMKAVTEQGAELSNEERNLLSVAYKNVVGGRRSAWRVISSIEQKTDTSDKKLQLIKDYREKVESELRSICTTVLELLDKYLIANATNPESKVFYLKMKGDYFRYLAEVACGDDRKQTIENSQGAYQEAFDISKKEMQPTHPIRLGLALNFSVFYYEILNNPELACTLAKTAFDEAIAELDTLNEDSYKDSTLIMQLLRDNLTLWTSDSAGEECDAAEGAEN

These are yes or no findings as the source states them, for the method shown. In cells and extracts the contact can be indirect. Here binding means that the protein was enriched with, or labelled near, the bait; the list need not be complete.

The target in the assay is T1, Sorbin and SH3 domain-containing protein 2 (mouse (endogenous in mouse myocardial tissue)). Briefly: affinity purification with mass spectrometry; IP of SORBS2 from myocardial tissue of normal adult mice (12 weeks), IgG control; silver-stained gel strips digested with trypsin, LC-MS/MS (Orbitrap Fusion Lumos).
Regarding MYH7 (from UniProt Q91Z83 1-1935), the binding entry is listed as “binds”. As for ACTN2 (from UniProt Q9JI91 1-894), the binding result is reported as “binds”. In the case of B1 it was “binds”.

Values taken from article PMC8833133.
